Results deposited as PubChem BioAssay AID743121 (NCATS, 2013).

- Purpose: 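Genes whose silencing strengthens cell killing by camptothecin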 (primary screen)
- Cells: MDA-MB-231 cells, a human breast cancer line
- Knock-down reagent: single siRNA against human genes, 20 nM siRNA (0.8 pmol per well)
- Timing: 120 h (drug added 48 h after transfection, read 72 h later)
- Challenge: camptothecin 20 nM (about EC30) for 72 h; vehicle 0.1% DMSO in parallel plates
- Measurement: 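CellTiter-Glo ATP signal, scaled to control siRNA as percent viability; sensitisation given as log2 of untreated divided by camptothecin-treated viability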
- Reading the numbers: log2 vehicle/camptothecin viability: higher = stronger sensitisation to camptothecin
- Rule for the call: 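Each gene scored by redundant siRNA activity (RSA) over its individual siRNA ratios; a gene is called active at p < 0.001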
This is one part, drawn at random, of about 26,000 deposited reagents. Of all reagents, 167 (0.63%) were called active. 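Calls are per gene from RSA p-values that are not deposited; an individual active-marked siRNA can sensitise only weakly.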 The numbers tell different reagents against one gene apart. Not all columns of the deposit are shown.

log2 vehicle/camptothecin viability, by gene and reagent
TRIP6 (GeneID 7205): #1 0.0687 inactive; #2 -0.279 inactive; #3 -0.16 inactive
CYP4F12 (GeneID 66002): #1 -0.0189 inactive; #2 -0.469 inactive; #3 -0.191 inactive; #4 -0.267 inactive
HSPA14 (GeneID 51182): #1 -0.0714 inactive; #2 -0.418 inactive; #3 0.117 inactive; #4 1.1 inactive
PSMA3 (GeneID 5684): #1 0.109 inactive; #2 -0.369 inactive; #3 -0.173 inactive; #4 0.361 inactive
EPHX1 (GeneID 2052): #1 -0.0161 inactive; #2 -0.326 inactive; #3 -0.00691 inactive; #4 0.397 inactive
DBF4 (GeneID 10926): #1 0.103 inactive; #2 0.0349 inactive; #3 -0.0726 inactive; #4 -0.179 inactive
ZNF346 (GeneID 23567): #1 -0.157 inactive; #2 -0.255 inactive; #3 -0.18 inactive; #4 -0.21 inactive
APOE (GeneID 348): #1 -0.211 inactive; #2 0.0921 inactive; #3 -0.197 inactive
LEPR (GeneID 3953): #1 -0.205 inactive; #2 -0.241 inactive; #3 -0.408 inactive; #4 0.586 inactive
CKMT1B (GeneID 1159): #1 -0.0779 inactive; #2 0.19 inactive; #3 -0.171 inactive; #4 -0.504 inactive
S1PR3 (GeneID 1903): #1 -0.215 inactive; #2 -0.298 inactive; #3 0.528 inactive; #4 -0.406 inactive
FBXO2 (GeneID 26232): #1 -0.374 inactive; #2 -0.259 inactive; #3 -0.439 inactive; #4 -0.0691 inactive
PPP1R3F (GeneID 89801): #1 -0.105 inactive; #2 -0.324 inactive; #3 -0.194 inactive; #4 -0.316 inactive
IMPG1 (GeneID 3617): #1 0.0534 inactive; #2 0.0166 inactive; #3 1.84 inactive; #4 0.000762 inactive
MAP3K3 (GeneID 4215): #1 -0.22 inactive; #2 1.82 inactive; #3 -0.768 inactive; #4 0.0574 inactive
KCNK7 (GeneID 10089): #1 0.427 inactive; #2 0.146 inactive; #3 0.0839 inactive
PGAP2 (GeneID 27315): #1 0.0159 inactive; #2 -0.0908 inactive; #3 -0.519 inactive
PHF1 (GeneID 5252): #1 -0.59 inactive; #2 0.424 inactive; #3 -0.287 inactive
EIF2AK2 (GeneID 5610): #1 -0.325 inactive; #2 -0.298 inactive; #3 -0.111 inactive; #4 0.196 inactive
